Results: PubChem BioAssay AID493014 (National Center for Advancing Translational Sciences (NCATS), 2011)
“And” between values parts separate entries of the source, which are not always exact repeats. Equal values may be shown once. Some of the results follow. The main result of the screen is listed elsewhere. These columns were measured beside it and carry no call. Compounds called inactive in the main read-out are mostly missing here. Potencies come from curve fits of mixed quality, noted in brackets.

Test: qHTS Assay to Find Inhibitors of Chronic Active B-Cell Receptor Signaling
Details: ABC-DLBCL IkBa-CBG/CBR reporter, luminescence ratio (green luciferase fused to IkBa over red control in TMD8 lymphoma cells), 4 h
Excerpt: NIH Molecular Libraries Probe Production Network [MLPCN] NIH Chemical Genomics Center [NCGC] MLPCN Grant: 1 R03 DA031086-01A1 PI Name: Dr. R. Eric Davis NCGC Assay Overview: Diffuse large B-cell lymphoma (DLBCL) is the most common category of non-Hodgkin lymphoma, with ~20,000 new cases per year in the United States. DLBCL should be regarded as a collection of different neoplasms. Microarray gene expression analysis has defined two principal types of DLBCL, named for their similarity to normal B cell stages or activation states: a germinal center B-cell (GCB) type, and an activated B-cell (ABC) type. In ABC-DLBCL, a constitutive high-level activity of the NF-kappaB family of transcription factors has been observed (1) and NF-kappaB target genes are more highly expressed in ABC primary tumors than in GCB tumors. Functional studies have shown a constitutive high-level activity of the IkappaB (inhibitor of kappa-B) kinase (IKK) complex. […] Further analysis of DLBCL primary tumors for NF-kappaB target gene expression imply that although CARD11 is required for constitutive IKK activity in all ABC-DLBCL lines, mutations in CARD11 may be the root cause of IKK activation only in lines or tumors with such mutations. In other words, CARD11 mutations may explain NF-kappaB activation in only 10% of ABC-DLBCL cases. […] This process has been termed 'chronic active BCR signaling' (CABS). The goal of this screen is to find small-molecule inhibitors of the CABS pathway found in ABC-DLBCL lines using a cell-based assay that measures IkappaBalpa stability, which has already been extensively validated in the OCI-Ly3 line (PubChem AID:445; REF: 4). […] The assay uses green (CBG68) and red (CBR) emitting beetle luciferases [Chroma-GloTM developed by Promega Corp.] where the green luciferase is fused to IkappaBalpha and the red luciferase is present in its native state. Both luciferase genes are stably present in the TMD8 human ABC DLBCL cell line, but their expression is under the control of tetracycline-inducible promoters. Following the addition of doxycycline to induce expression of the luciferases, the green luminescence in control cultures rises only slowly because the CBG fusion partner IkappaBalpha is targeted by IKK activity for rapid degradation. In contrast, green luminescence rises rapidly in the presence of proteasome inhibitors or IKK inhibitors. The rise in red luminescence of CBR is not affected by proteasome or IKK inhibitors, and serves as normalization for cell number and nonspecific effects. Compounds were screened as a concentration-titration series that ranged from 46 uM to 3 nM.
NCGC Assay Protocol Summary: Cells were seeded in 1536-well plates at 5000 cells/4uL in IMDM medium containing 0.5% FBS, w/o phenol red, 1% penicillin/streptomycin. Then, 23 nL of compounds or DMSO were delivered to each well using a pin tool. One uL 20ng/ml doxycycline was then dispensed into white solid 1536-well plates and the plates were incubated at 37C/5% C02 in a cell incubator for 4 hrs. Then 4 uL luminescent substrate mix (in-house prepared: 150 mM Tris-Cl, pH 7.6, 3 mM MgCl2, 1% Triton X-100, 5 mM DTT, 0.2 mM CoA, 0.15 mM ATP, 5 mM D-luciferin, final concentrations) was added to each well. The plate was incubated at r.t. for 10-15 min. The plates were measured on a ViewLux plate reader for green luminescence (540/20 nm filter) and red luminescence (618/8 nm filter). The green and red luminescent signals were corrected for red and green luminescence filter overlap using previously determined filter calibration constants (determined using the procedure outlined in the Promega Technical Manual; REF 4). The %Activity was determined from the ratio of corrected green/red luminescent values. MG132 were used as control. […] Red luminescent %Activity was normalized to the difference between red luminesence in basal cells (0%Activity) and zero luminescence (-100% Activity). […]

[1] = measured here: CBR red luminescence, cell number
[2] = measured here: IkBa-CBG green luminescence

Compound | AC50 [1] | AC50 [2]
O=C(O)c1ccc(CSc2nc3ccccc3o2)cc1 | 12.6 µM [falling, partial curve, poor fit] | 10 µM [falling, partial curve, poor fit]
CN(Cc1nc(-c2cccc(Cl)c2)no1)C1CCOCC1 | 8.91 µM [rising, partial curve, poor fit] | –
Cc1c(Cl)ccc2sc(N3CCN(C(=O)c4ccco4)CC3)nc12 | 1.41 µM [rising, full curve, poor fit] | –
Nc1c(-c2ccccc2)cnn1-c1ccccc1 | 8.91 µM [falling, partial curve, poor fit] | –
COc1cccc(-n2cc(CN(C)Cc3nc(Cc4ccccc4)no3)cn2)c1 | 35.5 µM [rising, single point] | –
COc1cc(-c2noc(C)c2C#Cc2ccccn2)cc(OC)c1OC | 35.5 µM [rising, single point] | –
Cc1nc2nc[nH]c2cc1Br | 10 µM [falling, partial curve, poor fit] | –
COc1cc(C(=O)OCC(=O)N(CC(C)C)C2CCS(=O)(=O)C2)ccc1OCC(C)C (centres undefined) | 20.6 µM [falling, single point] | –
Cc1cc(Nc2cccc(Cl)c2)n2ncnc2n1 | 5.17 µM [rising, partial curve, poor fit] | –
C[C@@]12C(=O)Nc3ccccc3C(=O)N1[C@H]1c3cc(Br)ccc3OC[C@@H]1[C@@H]2c1ccccc1 | 3.26 µM [falling, full curve] | 2.59 µM [rising, full curve, poor fit]
COc1ccc2c(c1)CCc1c(C(=O)NCC(C)C)noc1-2 | 25.1 µM [falling, single point] | –
COc1ccccc1-c1nc(-c2ccc(Br)o2)no1 | 3.26 µM [falling, full curve] and 1.58 µM [falling, full curve] | –
CCOc1cnc(-c2ccc(Cl)cc2)o1 | 29.1 µM [rising, single point] | –
O=C(CSc1nncs1)Nc1ccc(Cl)cc1C(F)(F)F | 0.0058 µM [rising, full curve, poor fit] | –
CC(=O)Nc1ccc(C)c(NC(=S)Nc2ccc(F)cc2)c1 | 0.316 µM [rising, full curve, poor fit] | –
CCOc1ccc(C2Nc3ccccc3C(CC)(CC)O2)cc1 (centres undefined) | 0.1 µM [rising, full curve, poor fit] | –
COc1ccc(/C=C/C(=O)Nc2ccccc2C)cc1S(=O)(=O)N1CCOCC1 | 7.94 µM [falling, partial curve, poor fit] | –
COc1ccc(Nc2nc(C)cc(C)c2C#N)c(OC)c1 | 0.562 µM [rising, full curve, poor fit] | –
CCn1c2nc(SCCN3CCOCC3)nnc2c2cc(C)cc(C)c21 | 22.4 µM [falling, single point] | –
Cc1ccc(-c2csc(N(Cc3ccco3)C(=O)c3cccs3)n2)cc1 | 18.4 µM [rising, single point] | –
COc1ccc(NC(=O)CSC2CC(=O)N(c3ccc4c(c3)OCCO4)C2=O)cc1 (centres undefined) | 1.84 µM [rising, partial curve, poor fit] | –

Compound | AC50 [1] | AC50 [2]
CCOC(=O)c1c(NC(=O)CN2CCN(C)CC2)sc(C(=O)Nc2ccccc2)c1C | 11.2 µM [falling, single point] | –
CC(=O)Oc1ccc(NC(=O)CCC2CCCCC2)c(C(=O)O)c1 | 1.64 µM [falling, full curve] | –
COc1ccc(CCNC(=O)C(=O)NN=C2CCCCCCC2)cc1OC | 5.62 µM [rising, single point] | –
Cc1cc(NC(=O)CCSc2nc(-c3ccco3)cc(C(F)(F)F)n2)n(-c2ccccc2)n1 | 25.9 µM [falling, single point] | 20.6 µM [rising, partial curve, poor fit]
CCn1nc(C(=O)OC2CCOC2=O)c2ccccc2c1=O (centres undefined) | 16.4 µM [falling, single point] | –
Cc1cc(=O)[nH]c(SCCCOc2ccc3c(c2)CCC3)n1 | 6.51 µM [rising, partial curve, poor fit] | –
Cc1ccc(NC(=O)N2CCCN(Cc3ccc(F)cc3)C2)cc1C | 35.5 µM [falling, partial curve, poor fit] | –
COC(=O)c1cc(OC)c(OC)cc1NC(=O)CN1C(=O)c2ccccc2C1=O | 0.517 µM [rising, partial curve] | –
COc1ccc(/C=C2\CCc3ccccc3C2=O)cc1Cn1cccn1 | 2.91 µM [rising, single point] | –
CCOc1ccc(Br)cc1/C=N/NC(=O)c1ccncc1 | 0.259 µM [falling, partial curve, poor fit] | –
O=[N+]([O-])c1cc([N+](=O)[O-])c2n[nH]c(-c3ccccc3)c2c1 | 5.62 µM [rising, single point] | –
CSCCC(NC(=O)c1ccccc1Br)C(=O)NCc1ccc(F)cc1 (centres undefined) | 2.82 µM [rising, single point] | –
C1=C(CCNc2ncnc3c2cnn3-c2ccccc2)CCCC1 | 0.731 µM [rising, full curve, poor fit] | –
O=C(Nc1nc(-c2ccccc2)c(-c2ccccc2)o1)c1ccc(F)cc1 | 3.16 µM [falling, single point] | –
Cc1csc(NC(=O)CSc2nsc(SCC(=O)Nc3nc(C)cs3)c2C#N)n1 | 35.5 µM [falling, single point] | –
CCOC(=O)CN1CC23C=CC(O2)C(C(=O)O)C3C1=O (centres undefined) | 0.517 µM [rising, full curve, poor fit] | –
Cc1cccc(NC(=O)CCC(=O)N/N=C/c2ccc(O)cc2O)c1 | 35.5 µM [falling, single point] | –
CN(C)c1cccc(C(=O)N/N=C/c2ccccc2F)c1 | 3.98 µM [falling, full curve, poor fit] | –
O=C(CSc1cn(CCNC(=O)c2cccs2)c2ccccc12)NCc1ccccc1 | 23.1 µM [falling, single point] | –
CCOc1ccc(NC(=O)CN(C)C(=O)c2ccccc2Cc2ccccc2)cc1OCC | 18.4 µM [rising, single point] | –
COc1ccc(N(CC(=O)Nc2ccccc2OC)S(=O)(=O)c2ccc(NC(C)=O)cc2)cc1 | 35.5 µM [falling, single point] | –

Compound | AC50 [1] | AC50 [2]
O=C1NC(=NCc2ccccc2)S/C1=C/c1ccc(O)cc1 | 29.1 µM [falling, single point] | 2.91 µM [falling, partial curve, poor fit]
CCOC(=O)c1c(NC(=O)c2ccccc2)sc2c(O)c(CN(CC)CC)ccc12 | 1 µM [falling, full curve] | –
CCCCN(CC)C(=O)c1oc2ccc(S(=O)(=O)N3CCCC3)cc2c1C | 3.98 µM [rising, single point] | 5.62 µM [falling, single point]
Cn1c(NC(=O)c2ccccc2F)cc(=O)n(C)c1=O | 29.1 µM [rising, single point] | –
C=CCN1C(=O)C2C3CC(=O)C(c4ccccc43)C2C1=O (centres undefined) | 0.708 µM [rising, full curve, poor fit] | –
COc1cccc(C(=O)NCCS(=O)(=O)N2CCCC2)c1 | 13 µM [rising, partial curve] | –
c1ccc2[nH]c(-c3ccnc4ccccc34)nc2c1 | 11.6 µM [falling, partial curve, poor fit] and 11.2 µM [falling, partial curve] | –
COc1ccc(C(=O)Nc2ccccc2C(=O)O)cc1Cl | 1.16 µM [falling, full curve] | –
CCc1cc2c(=O)oc(-c3ccc(F)cc3)nc2s1 | 3.16 µM [falling, full curve] | –
Cc1nn(-c2ccccc2)c(C)c1/C=N/NC(=O)c1cc(-c2cccs2)[nH]n1 | – | 2.59 µM [falling, full curve]
N#CC1=C(N)NC(=S)C(C(N)=O)C1c1ccc([N+](=O)[O-])cc1 (centres undefined) | 35.5 µM [falling, single point] | –
c1ccc(CSc2nnc(-c3cccs3)o2)cc1 | 0.251 µM [rising, full curve, poor fit] | –
COC(=O)c1ccc(NC(=O)c2c(NCc3ccc(C)o3)sc3c2CCCC3)cc1 | 8.91 µM [falling, partial curve, poor fit] | –
C/C(=N\NC(=O)c1nc2ccccn2c1C)c1ccc2c(c1)OCO2 | 6.51 µM [rising, partial curve, poor fit] | –
O=C(NCCO)c1ccc2c3n(nc2c1)-c1ccccc1CO3 | 3.55 µM [falling, full curve] | –
O=C(Nc1cccc(S(=O)(=O)N2CCOCC2)c1)c1ccco1 | 29.1 µM [falling, single point] | 29.1 µM [rising, partial curve, poor fit]
O=C(Nc1ccc2nc(-c3ccccn3)[nH]c2c1)C1CCCCC1 | 16.4 µM [falling, single point] | –
COc1cc(/C=C/C(=O)c2ccc(Cl)s2)cc(OC)c1O | 11.6 µM [falling, partial curve, poor fit] | –
CCn1c(=O)cc(SCC(=O)Nc2ccc3c(c2)OCO3)c2ccccc21 | 16.4 µM [falling, single point] | –
C(=N\Nc1nc2ccccc2[nH]1)/c1ccccn1 | 1.58 µM [falling, full curve] | –
CSc1nc(N)nc2c1ncn2CC(=O)NCc1ccccc1 | 18.4 µM [falling, partial curve, poor fit] | –

One compound at a time, from the list above.
c1ccc2[nH]c(-c3ccnc4ccccc34)nc2c1 as listed: AC50 [1]: 11.6 µM [falling, partial curve, poor fit] and 11.2 µM [falling, partial curve]
C/C(=N\NC(=O)c1nc2ccccn2c1C)c1ccc2c(c1)OCO2 as listed: AC50 [1]: 6.51 µM [rising, partial curve, poor fit]
O=C(Nc1ccc2nc(-c3ccccn3)[nH]c2c1)C1CCCCC1 as listed: AC50 [1]: 16.4 µM [falling, single point]
CCOC(=O)c1c(NC(=O)c2ccccc2)sc2c(O)c(CN(CC)CC)ccc12 as listed: AC50 [1]: 1 µM [falling, full curve]
